PubChem BioAssay AID504764 | Drosophila RNAi Screening Center | 2011
Screen: 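Genome-wide screen for regulators of Notch-driven gene expression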 (primary screen). Cells: Drosophila Kc167 cells. Reagent: long dsRNA against Drosophila genes. Timing: about 5 days (4 days dsRNA, then 24 h after transfection). Conditions: transfection of constitutively active membrane-tethered Notch lacking the extracellular domain, read 24 h later. Measured: 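Light from a Notch-responsive E(spl)m3 luciferase reporter under active Notch, with control-promoter and no-Notch reporter wells to normalise; raw counts from paired wells a and b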. Scale: induced reporter light, run 1, well a and induced reporter light, run 1, well b: higher = more light from the Notch target reporter with active Notch; control promoter light, run 1, well a and control promoter light, run 1, well b: higher = more light from the viral control promoter (cell number, transfection, viability); uninduced reporter light, run 1, well a: higher = more light from the Notch target reporter without active Notch. Hit rule: 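Wells with low control signal or poorly matching duplicates excluded; duplicates averaged; per source plate, z beyond ±2 for induced/control log2 ratio or beyond ±1.8 for induced/uninduced marks a hit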. Meaning of the calls: active = modifier hit (raised or lowered Notch signal); inactive = not a hit.
In all, the deposit lists about 22,000 reagents; shown is an unselected part of those with a known target gene and a result. Over the whole deposit, 403 (1.9%) got an active call. 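Unnormalised raw counts per well; ratio z-scores behind the hit calls and whether each hit raises or lowers signal are not deposited.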 Names joined by + are all predicted targets of the reagent. The record does not give: the amount of reagent.

Gene | dsRNA | induced reporter light, run 1, well a | induced reporter light, run 1, well b | control promoter light, run 1, well a | control promoter light, run 1, well b | uninduced reporter light, run 1, well a | call
Mccc2 (GeneID 59261) | DRSC04987 | 2.40e5 | 1.99e5 | 1.96e5 | 1.50e5 | 14015 | inactive
CG42502 + CG10570 | DRSC02071 | 2.82e5 | 2.25e5 | 3.08e5 | 2.86e5 | 20085 | inactive
Unc-115b + p24-2 + Unc-115a | DRSC16502 | 66400 | 73960 | 65115 | 53515 | 3488 | inactive
CG42686 (retired record) (GeneID 42674) | DRSC15247 | 9565 | 8355 | 6785 | 6530 | 2500 | inactive
CG42686 (retired record) (GeneID 42674) | DRSC15248 | 1.62e5 | 1.57e5 | 2.24e5 | 1.93e5 | 14205 | inactive
CG7031 (GeneID 42704) | DRSC16178 | 9265 | 10690 | 7275 | 7865 | 2770 | inactive
CG12828 (GeneID 5740660) | DRSC06177 | 2.19e5 | 2.14e5 | 2.50e5 | 2.47e5 | 18250 | inactive
O-fut2 (GeneID 31098) | DRSC18608 | 1.66e5 | 1.72e5 | 2.32e5 | 2.09e5 | 11195 | inactive
CG9406 (GeneID 37405) | DRSC04552 | 20195 | 42785 | 56090 | 52415 | 3342 | inactive
PCB (GeneID 36020) | DRSC05939 | 1.64e5 | 1.34e5 | 2.21e5 | 1.73e5 | 12670 | inactive
C15 (GeneID 42544) | DRSC13495 | 74815 | 71135 | 1.02e5 | 61755 | 10390 | inactive
C15 (GeneID 42544) | DRSC14169 | 1.70e5 | 1.52e5 | 1.14e5 | 1.12e5 | 10940 | inactive
Iris (GeneID 33290) | DRSC00663 | 2.19e5 | 2.09e5 | 2.58e5 | 2.46e5 | 16615 | inactive
CG12316 (GeneID 39650) | DRSC09879 | 1.26e5 | 1.23e5 | 64440 | 76555 | 11260 | inactive
Drs (GeneID 38419) | DRSC08657 | 1.36e5 | 1.28e5 | 2.20e5 | 1.96e5 | 10630 | inactive
CG3434 (GeneID 39098) | DRSC10365 | 1.24e5 | 1.00e5 | 75260 | 35895 | 10850 | inactive

The list goes on (4 carried over from the part before).
Gene | dsRNA | induced reporter light, run 1, well a | induced reporter light, run 1, well b | control promoter light, run 1, well a | control promoter light, run 1, well b | uninduced reporter light, run 1, well a | call
Iris (GeneID 33290) | DRSC00663 | 2.19e5 | 2.09e5 | 2.58e5 | 2.46e5 | 16615 | inactive
CG12316 (GeneID 39650) | DRSC09879 | 1.26e5 | 1.23e5 | 64440 | 76555 | 11260 | inactive
Drs (GeneID 38419) | DRSC08657 | 1.36e5 | 1.28e5 | 2.20e5 | 1.96e5 | 10630 | inactive
CG3434 (GeneID 39098) | DRSC10365 | 1.24e5 | 1.00e5 | 75260 | 35895 | 10850 | inactive
CG32643 (GeneID 318138) | DRSC18962 | 66630 | 61935 | 72935 | 58595 | 4865 | inactive
Cpr76Bb (GeneID 40121) | DRSC11061 | 1.28e5 | 1.35e5 | 1.01e5 | 1.03e5 | 13585 | inactive
COX7B (GeneID 50266) | DRSC10895 | 2.31e5 | 2.36e5 | 2.54e5 | 2.46e5 | 6220 | inactive
Flad1 (GeneID 32240) | DRSC19898 | 1.79e5 | 1.75e5 | 1.93e5 | 2.39e5 | 15895 | inactive
CG2747 (GeneID 40950) | DRSC15450 | 95195 | 98745 | 87300 | 58305 | 6675 | inactive
PHDP (GeneID 37788) | DRSC04635 | 1.85e5 | 1.44e5 | 1.41e5 | 1.56e5 | 11460 | inactive
Mur29B (GeneID 319014) | DRSC01018 | 1.16e5 | 1.07e5 | 1.50e5 | 1.19e5 | 7515 | inactive
Mur29B (GeneID 319014) | DRSC02376 | 1.67e5 | 1.85e5 | 81030 | 1.11e5 | 22005 | inactive
CG5888 (GeneID 34980) | DRSC01929 | 1.71e5 | 1.78e5 | 1.79e5 | 1.74e5 | 15245 | inactive
CG14285 (GeneID 42281) | DRSC14766 | 1.71e5 | 1.42e5 | 1.86e5 | 1.78e5 | 13225 | inactive
CG6996 (GeneID 40212) | DRSC10758 | 1.50e5 | 1.06e5 | 99180 | 98775 | 7820 | inactive
CG12011 (GeneID 38211) | DRSC08219 | 1.15e5 | 1.21e5 | 1.56e5 | 1.88e5 | 8550 | inactive
CG33494 (GeneID 2768686) | DRSC13715 | 2.46e5 | 2.31e5 | 2.13e5 | 2.28e5 | 19605 | inactive
PolA2 (GeneID 43278) | DRSC16641 | 1.49e5 | 1.27e5 | 2.05e5 | 1.62e5 | 13310 | inactive
Sox102F (GeneID 43844) | DRSC17204 | 2.05e5 | 1.84e5 | 2.11e5 | 2.31e5 | 13490 | inactive
Wdr33 (GeneID 40698) | DRSC12162 | 80620 | 81840 | 40455 | 33170 | 6750 | inactive
CG17803 (GeneID 42141) | DRSC15275 | 1.94e5 | 1.79e5 | 1.93e5 | 1.69e5 | 12435 | inactive
CG11686 (GeneID 50024) | DRSC14350 | 3.09e5 | 2.97e5 | 2.65e5 | 2.35e5 | 20300 | inactive
Fer3 (GeneID 41411) | DRSC16133 | 1.25e5 | 1.10e5 | 71600 | 74825 | 9000 | inactive
Mpv17 (GeneID 43831) | DRSC17198 | 1.12e5 | 1.08e5 | 2.06e5 | 2.02e5 | 8705 | inactive
CG2962 (GeneID 31952) | DRSC18247 | 1.46e5 | 1.74e5 | 2.02e5 | 2.02e5 | 12015 | inactive
RpS28b (GeneID 31897) | DRSC18258 | 27340 | 31760 | 32905 | 32240 | 1865 | inactive
Alp1 (GeneID 40372) | DRSC11781 | 1.04e5 | 1.16e5 | 61995 | 78610 | 9550 | inactive
Tps1 (GeneID 33642) | DRSC00269 | 2.00e5 | 2.22e5 | 1.76e5 | 1.74e5 | 18080 | inactive
Eph (GeneID 43803) | DRSC17164 | 1.71e5 | 2.08e5 | 3.30e5 | 2.75e5 | 13265 | inactive
lms (GeneID 37322) | DRSC06387 | 1.81e5 | 1.52e5 | 2.87e5 | 3.13e5 | 8305 | inactive
Syp (GeneID 42460) | DRSC13444 | 1.07e5 | 96450 | 1.20e5 | 97335 | 10482 | inactive
Syp (GeneID 42460) | DRSC15286 | 1.60e5 | 1.63e5 | 1.73e5 | 2.03e5 | 13605 | inactive
CG7309 (GeneID 34509) | DRSC03045 | 1.18e5 | 1.48e5 | 68060 | 1.12e5 | 16690 | inactive
lin-52 (GeneID 31499) | DRSC18106 | 1.22e5 | 1.18e5 | 2.72e5 | 2.81e5 | 11200 | inactive
CG2861 (GeneID 31414) | DRSC18229 | 1.08e5 | 1.11e5 | 1.34e5 | 1.49e5 | 7330 | active
CG14568 (GeneID 40418) | DRSC11729 | 1.03e5 | 1.02e5 | 95195 | 90965 | 7820 | inactive
CG11333 (GeneID 43714) | DRSC14301 | 1.28e5 | 1.40e5 | 2.22e5 | 2.27e5 | 11790 | inactive
CG12290 (GeneID 43182) | DRSC14497 | 1.52e5 | 1.99e5 | 1.93e5 | 2.06e5 | 12855 | inactive
